Values quoted from earlier work, collected in patent US6071919A, “Zwitterionic compositions and methods as biological response modifiers” (priority 1998, dated 2000).
At least one read-out could not be matched to a standard name with certainty.

Key:
[1] = ADA: data of Schwarzenbach et al. (1955); cited from earlier work
[2] = ADA: data of Schwarzenbach et al. (1955); cited from earlier work; remark: listed apart in the source

## O=C(O)CN(CCO)CCO [Bicine]
[1]
  Metal-Buffer Binding Constants Log KM, Mn^2+: 3.1
[2]
  Metal-Buffer Binding Constants Log KM, Cu^2+: 8.1
